Measurements from PubChem BioAssay AID2124 (Sanford-Burnham Center for Chemical Genomics, 2009).
This list was built around the results that the source calls inconclusive (neither active nor inactive); the mix of calls is not that of the screen. The rule behind the calls is not given here; tested in MIN6 cells.

Assay: cell-permeable autofluorescent compounds in GFP channel, dose response, artefact control, imaging, high-content imaging (AID 2124);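 note: cells exposed to compound for 48 hours before fixing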
Conditions: cells, GFP-channel autofluorescence, at 10 µM, active compounds read high

For `CCCCn1c(O)c(C(=O)/C=C/c2c[nH]c3ccccc23)c(=O)[nH]c1=O`, the z-score was inconclusive: 0.01.
